# Measured values as given in the supplement of paper PMC8728848.
# The list shows a part of the results.
# B1: GS13599A-bth-520-23-520 (Bacteroides thetaiotaomicron) (protein)
# chain: SEDTMDRINKDHDHTTSVASRFILADVITSTAFSNASGDINTYASSYIEYEVGVDNQLYYAEVRENEPSSSSTFNNSWNGIYSSLKNARIIIDQCGEGGRDHGNDVTRGMAEVMAAYNCALIADFFGDAPCSQAALVDEKGSPVYMTPKMDTQQEIYTQIISYLDDAIANLQKEDLADVTEQDFLYAGDADKWLKFAYGLKARYTMRLINRSSNKSADYEKVLDYVSKSFTSADDQAAFDIYDSNNINPFYGFYNSRAGFGASTSLGTKLLAYNDPRANRAFFTPIVDKKRSQVAANDPSLVPAPNGSPDQSTSKYGISAFVYAKTAPTLLMSYHELMFLKAEALCRLNRDAEDALKEAVVAGLLNAENSISIAIKELGSGLNTNSSEVITETSAGKYFDDVVKAKYAANPLQETMIQKYLAMWGASGEATETYNDFRRMKGLNENFITLTNPNNSSKFPLRYPYGNSDTAANPEVKAAYGNGDYVYSEPVWWAGGSR
# How the values were obtained:
# Assay in all cases: glycan array binding signal (z-score within array); higher = stronger binding
# Details in all cases: glycan notation: IUPAC condensed, linker removed
# [1] = target: Neu5Ac(a2-3)Gal(b1-4)GlcNAc(b1-6)GalNAc
# Procedure, shortened: (§1)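 Glycan array data were curated from 3228 arrays in the Consortium for Functional Glycomics database and kept only where the protein sequence was available. Glycan names were converted to IUPAC-condensed notation, and columns mapping to the same glycan were averaged. The binding signal is a within-array Z-score, averaged across arrays of the same protein sequence at different concentrations or buffers and across linkers. Negative Z-scores can be read as non-binding.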
# [2] = target: Neu5Ac(a2-3)Gal(b1-4)GlcNAc(b1-6)[Gal(b1-3)]GalNAc
# Procedure, shortened: as §1
# [3] = target: Neu5Ac(a2-3)Gal(b1-4)GlcNAc(b1-6)[Neu5Ac(a2-3)Gal(b1-3)]GalNAc
# Procedure, shortened: as §1
# [4] = target: Neu5Ac(a2-3)Gal(b1-4)GlcNAc6S
# Procedure, shortened: as §1
# [5] = target: Neu5Ac(a2-3)Gal(b1-4)[Fuc(a1-3)]GlcNAc
# Procedure, shortened: as §1
# [6] = target: Neu5Ac(a2-3)Gal(b1-4)[Fuc(a1-3)]GlcNAc(b1-2)Man
# Procedure, shortened: as §1
# [7] = target: Neu5Ac(a2-3)Gal(b1-4)[Fuc(a1-3)]GlcNAc(b1-3)Gal
# Procedure, shortened: as §1
# [8] = target: Neu5Ac(a2-3)Gal(b1-4)[Fuc(a1-3)]GlcNAc(b1-3)Gal(b1-4)GlcNAc
# Procedure, shortened: as §1
# [9] = target: Neu5Ac(a2-3)Gal(b1-4)[Fuc(a1-3)]GlcNAc(b1-3)Gal(b1-4)[Fuc(a1-3)]GlcNAc(b1-3)Gal(b1-4)[Fuc(a1-3)]GlcNAc
# Procedure, shortened: as §1
# [10] = target: Neu5Ac(a2-3)Gal(b1-4)[Fuc(a1-3)]GlcNAc(b1-3)GalNAc
# Procedure, shortened: as §1
# [11] = target: Neu5Ac(a2-3)Gal(b1-4)[Fuc(a1-3)]GlcNAc(b1-6)[Gal(b1-3)]GalNAc
# Procedure, shortened: as §1
# [12] = target: Neu5Ac(a2-3)Gal(b1-4)[Fuc(a1-3)]GlcNAc(b1-6)[Neu5Ac(a2-3)Gal(b1-3)]GalNAc
# Procedure, shortened: as §1
# [13] = target: Neu5Ac(a2-3)Gal(b1-4)[Fuc(a1-3)]GlcNAc6S
# Procedure, shortened: as §1
# [14] = target: Neu5Ac(a2-3)Gal6S(b1-4)GlcNAc
# Procedure, shortened: as §1
# [15] = target: Neu5Ac(a2-3)Gal6S(b1-4)[Fuc(a1-3)]GlcNAc
# Procedure, shortened: as §1
# Neu5Ac(a2-3)GalNAc = target: Neu5Ac(a2-3)GalNAc
# Procedure, shortened: as §1
# [16] = target: Neu5Ac(a2-3)GalNAc(b1-4)GlcNAc
# Procedure, shortened: as §1
# [17] = target: Neu5Ac(a2-3)[GalNAc(b1-4)]Gal(b1-4)Glc
# Procedure, shortened: as §1
# [18] = target: Neu5Ac(a2-3)[GalNAc(b1-4)]Gal(b1-4)GlcNAc
# Procedure, shortened: as §1
# [19] = target: Neu5Ac(a2-3)[GalNAc(b1-4)]Gal(b1-4)GlcNAc(b1-3)GalNAc
# Procedure, shortened: as §1
# [20] = target: Neu5Ac(a2-3)[Neu5Ac(a2-6)]GalNAc
# Procedure, shortened: as §1
# Neu5Ac(a2-6)Gal = target: Neu5Ac(a2-6)Gal
# Procedure, shortened: as §1
# [21] = target: Neu5Ac(a2-6)Gal(b1-3)GlcNAc(b1-3)[Gal(b1-4)GlcNAc(b1-6)]Gal(b1-4)Glc
# Procedure, shortened: as §1
# Neu5Ac(a2-6)Gal(b1-4)Glc = target: Neu5Ac(a2-6)Gal(b1-4)Glc
# Procedure, shortened: as §1
# [22] = target: Neu5Ac(a2-6)Gal(b1-4)GlcNAc
# Procedure, shortened: as §1
# [23] = target: Neu5Ac(a2-6)Gal(b1-4)GlcNAc(b1-2)Man
# Procedure, shortened: as §1
# [24] = target: Neu5Ac(a2-6)Gal(b1-4)GlcNAc(b1-2)Man(a1-3)Man(b1-4)GlcNAc(b1-4)GlcNAc
# Procedure, shortened: as §1
# [25] = target: Neu5Ac(a2-6)Gal(b1-4)GlcNAc(b1-2)Man(a1-3)[Gal(b1-4)GlcNAc(b1-2)Man(a1-6)]Man(b1-4)GlcNAc(b1-4)GlcNAc
# Procedure, shortened: as §1
# [26] = target: Neu5Ac(a2-6)Gal(b1-4)GlcNAc(b1-2)Man(a1-3)[GlcNAc(b1-2)Man(a1-6)]Man(b1-4)GlcNAc(b1-4)GlcNAc
# Procedure, shortened: as §1
# [27] = target: Neu5Ac(a2-6)Gal(b1-4)GlcNAc(b1-2)Man(a1-3)[GlcNAc(b1-4)][Neu5Ac(a2-6)Gal(b1-4)GlcNAc(b1-2)Man(a1-6)]Man(b1-4)GlcNAc(b1-4)GlcNAc
# Procedure, shortened: as §1
# [28] = target: Neu5Ac(a2-6)Gal(b1-4)GlcNAc(b1-2)Man(a1-3)[Man(a1-6)]Man(b1-4)GlcNAc(b1-4)GlcNAc
# Procedure, shortened: as §1
# [29] = target: Neu5Ac(a2-6)Gal(b1-4)GlcNAc(b1-2)Man(a1-3)[Neu5Ac(a2-3)Gal(b1-4)GlcNAc(b1-2)Man(a1-6)]Man(b1-4)GlcNAc(b1-4)GlcNAc
# Procedure, shortened: as §1
# [30] = target: Neu5Ac(a2-6)Gal(b1-4)GlcNAc(b1-2)Man(a1-3)[Neu5Ac(a2-6)Gal(b1-4)GlcNAc(b1-2)Man(a1-6)]Man(b1-4)GlcNAc(b1-4)GlcNAc
# Procedure, shortened: as §1
# [31] = target: Neu5Ac(a2-6)Gal(b1-4)GlcNAc(b1-2)Man(a1-3)[Neu5Ac(a2-6)Gal(b1-4)GlcNAc(b1-2)Man(a1-6)]Man(b1-4)GlcNAc(b1-4)[Fuc(a1-6)]GlcNAc
# Procedure, shortened: as §1
# [32] = target: Neu5Ac(a2-6)Gal(b1-4)GlcNAc(b1-2)Man(a1-6)Man(b1-4)GlcNAc(b1-4)GlcNAc
# Procedure, shortened: as §1
# [33] = target: Neu5Ac(a2-6)Gal(b1-4)GlcNAc(b1-2)Man(a1-6)[Gal(b1-4)GlcNAc(b1-2)Man(a1-3)]Man(b1-4)GlcNAc(b1-4)GlcNAc
# Procedure, shortened: as §1
# [34] = target: Neu5Ac(a2-6)Gal(b1-4)GlcNAc(b1-2)Man(a1-6)[GlcNAc(b1-2)Man(a1-3)]Man(b1-4)GlcNAc(b1-4)GlcNAc
# Procedure, shortened: as §1
# [35] = target: Neu5Ac(a2-6)Gal(b1-4)GlcNAc(b1-2)Man(a1-6)[Man(a1-3)]Man(b1-4)GlcNAc(b1-4)GlcNAc
# Procedure, shortened: as §1
# [36] = target: Neu5Ac(a2-6)Gal(b1-4)GlcNAc(b1-2)[Neu5Ac(a2-6)Gal(b1-4)GlcNAc(b1-4)]Man(a1-3)[GlcNAc(b1-4)][Neu5Ac(a2-6)Gal(b1-4)GlcNAc(b1-2)[Neu5Ac(a2-6)Gal(b1-4)GlcNAc(b1-6)]Man(a1-6)]Man(b1-4)GlcNAc(b1-4)GlcNAc
# Procedure, shortened: as §1
# [37] = target: Neu5Ac(a2-6)Gal(b1-4)GlcNAc(b1-2)[Neu5Ac(a2-6)Gal(b1-4)GlcNAc(b1-4)]Man(a1-3)[GlcNAc(b1-4)][Neu5Ac(a2-6)Gal(b1-4)GlcNAc(b1-4)Man(a1-6)]Man(b1-4)GlcNAc(b1-4)GlcNAc
# Procedure, shortened: as §1
# [38] = target: Neu5Ac(a2-6)Gal(b1-4)GlcNAc(b1-2)[Neu5Ac(a2-6)Gal(b1-4)GlcNAc(b1-6)]Man(a1-6)[Neu5Ac(a2-6)Gal(b1-4)GlcNAc(b1-2)Man(a1-3)][GlcNAc(b1-4)]Man(b1-4)GlcNAc(b1-4)GlcNAc
# Procedure, shortened: as §1
# [39] = target: Neu5Ac(a2-6)Gal(b1-4)GlcNAc(b1-3)Gal(b1-3)GlcNAc
# Procedure, shortened: as §1
# [40] = target: Neu5Ac(a2-6)Gal(b1-4)GlcNAc(b1-3)Gal(b1-4)GlcNAc
# Procedure, shortened: as §1
# [41] = target: Neu5Ac(a2-6)Gal(b1-4)GlcNAc(b1-3)Gal(b1-4)GlcNAc(b1-2)Man(a1-3)[Neu5Ac(a2-6)Gal(b1-4)GlcNAc(b1-3)Gal(b1-4)GlcNAc(b1-2)Man(a1-6)]GalNAc
# Procedure, shortened: as §1
# [42] = target: Neu5Ac(a2-6)Gal(b1-4)GlcNAc(b1-3)Gal(b1-4)GlcNAc(b1-3)Gal(b1-4)GlcNAc
# Procedure, shortened: as §1
# [43] = target: Neu5Ac(a2-6)Gal(b1-4)GlcNAc(b1-3)Gal(b1-4)GlcNAc(b1-3)Gal(b1-4)GlcNAc(b1-2)Man(a1-3)[Neu5Ac(a2-6)Gal(b1-4)GlcNAc(b1-3)Gal(b1-4)GlcNAc(b1-3)Gal(b1-4)GlcNAc(b1-2)Man(a1-6)]GalNAc
# Procedure, shortened: as §1
binder,measurement,setting,value
B1,glycan array binding signal (z-score),[1],0.389
same,glycan array binding signal (z-score),[2],-0.773
same,glycan array binding signal (z-score),[3],-1.11
same,glycan array binding signal (z-score),[4],0.046
same,glycan array binding signal (z-score),[5],-0.733
same,glycan array binding signal (z-score),[6],0.366
same,glycan array binding signal (z-score),[7],-0.25
same,glycan array binding signal (z-score),[8],-0.66
same,glycan array binding signal (z-score),[9],-0.533
same,glycan array binding signal (z-score),[10],0.851
same,glycan array binding signal (z-score),[11],-0.842
same,glycan array binding signal (z-score),[12],-0.041
same,glycan array binding signal (z-score),[13],-0.203
same,glycan array binding signal (z-score),[14],-0.146
same,glycan array binding signal (z-score),[15],-0.989
same,glycan array binding signal (z-score),Neu5Ac(a2-3)GalNAc,-0.665
same,glycan array binding signal (z-score),[16],-0.754
same,glycan array binding signal (z-score),[17],0.178
same,glycan array binding signal (z-score),[18],-0.967
same,glycan array binding signal (z-score),[19],1.34
same,glycan array binding signal (z-score),[20],-0.336
same,glycan array binding signal (z-score),Neu5Ac(a2-6)Gal,0.331
same,glycan array binding signal (z-score),[21],-1.01
same,glycan array binding signal (z-score),Neu5Ac(a2-6)Gal(b1-4)Glc,-0.123
same,glycan array binding signal (z-score),[22],-0.724
same,glycan array binding signal (z-score),[23],-0.572
same,glycan array binding signal (z-score),[24],-0.803
same,glycan array binding signal (z-score),[25],0.028
same,glycan array binding signal (z-score),[26],0.659
same,glycan array binding signal (z-score),[27],-0.169
same,glycan array binding signal (z-score),[28],0.864
same,glycan array binding signal (z-score),[29],-0.584
same,glycan array binding signal (z-score),[30],-0.142
same,glycan array binding signal (z-score),[31],1.66
same,glycan array binding signal (z-score),[32],0.942
same,glycan array binding signal (z-score),[33],0.484
same,glycan array binding signal (z-score),[34],-0.32
same,glycan array binding signal (z-score),[35],-0.905
same,glycan array binding signal (z-score),[36],-1.03
same,glycan array binding signal (z-score),[37],-0.78
same,glycan array binding signal (z-score),[38],-0.669
same,glycan array binding signal (z-score),[39],-0.514
same,glycan array binding signal (z-score),[40],-1.27
same,glycan array binding signal (z-score),[41],0.513
same,glycan array binding signal (z-score),[42],-0.605
same,glycan array binding signal (z-score),[43],2.37

# Random excerpt: three records from the list, in no set order.
binder,measurement,setting,value
B1,glycan array binding signal (z-score),[41],0.513
same,glycan array binding signal (z-score),[2],-0.773
same,glycan array binding signal (z-score),[40],-1.27
